For this assay, the target named is GRP78 protein (Homo sapiens, UniProt P11021). In words: Binding activity of VAP to GRP78 by surface plasmon resonance (Biacore).

Protein sequences, listed by entry. Tags and fused reporters are not part of them. Residues count along the entry.
UniProt P11021, 19-654: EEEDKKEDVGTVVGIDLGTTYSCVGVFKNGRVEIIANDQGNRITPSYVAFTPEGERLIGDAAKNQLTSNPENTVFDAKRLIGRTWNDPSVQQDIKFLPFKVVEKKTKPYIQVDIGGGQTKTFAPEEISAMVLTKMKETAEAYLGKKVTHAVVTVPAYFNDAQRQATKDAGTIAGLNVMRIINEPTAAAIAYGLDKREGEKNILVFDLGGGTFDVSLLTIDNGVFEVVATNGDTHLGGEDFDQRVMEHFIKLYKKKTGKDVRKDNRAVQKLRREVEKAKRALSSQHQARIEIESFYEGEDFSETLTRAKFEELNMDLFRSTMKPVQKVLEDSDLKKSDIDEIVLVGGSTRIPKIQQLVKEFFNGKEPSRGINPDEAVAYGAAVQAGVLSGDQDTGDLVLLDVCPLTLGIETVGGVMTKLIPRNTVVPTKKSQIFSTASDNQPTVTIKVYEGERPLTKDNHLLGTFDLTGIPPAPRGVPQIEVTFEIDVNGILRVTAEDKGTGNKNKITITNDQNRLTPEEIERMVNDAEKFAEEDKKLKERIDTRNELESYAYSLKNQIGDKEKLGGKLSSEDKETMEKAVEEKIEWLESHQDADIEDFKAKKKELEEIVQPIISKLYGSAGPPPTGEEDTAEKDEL

For the compound `CC(C)[C@@H](NC(=O)[C@@H](C)NC(=O)[C@H]1CCCN1)C(=O)N[C@H](CCCNC(=N)N)C(=O)N[C@@H](C(=O)N[C@H](CC(N)=O)C(=O)N[C@H](CO)C(=O)O)[C@H](C)O` [^DVAP], binding was characterised by a dissociation constant (Kd) of 4.01 µM.

Source of the values: patent US11622990B2, “VAP polypeptide and use thereof in preparation of drug for targeted diagnosis and treatment of tumor” (FUDAN UNIVERSITY, priority 2016, dated 2023).
